Experimental data: PubChem BioAssay AID1259308 (NCATS, 2017)

Assay: 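Knock-downs that increase output of a recombinant reporter protein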 (primary screen)
Cells: human HEK293 embryonic kidney cells stably expressing firefly luciferase (HEK-CMV-Luc2-Hygro)
Reagents: single siRNA against human genes, 0.8 pmol siRNA per well
Timing: 72 h
Read-out: 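Reporter luminescence and viable-cell signal on separate replicate plates, given as percent of non-targeting control and median/MAD z-scores, plus per-cell luciferase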
Reading the numbers: total luciferase, z-score: higher = more reporter protein produced
Call rule: 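Active when the median/MAD z-score for overall luciferase is greater than 3; a gene was taken forward for validation with new siRNAs if at least two of its three siRNAs passed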
Calls: active = raised luciferase; inactive = no rise
Shown is an unselected part of about 59,000 reagents tested. About 1,510 of them (2.6%) count as active. 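Calls use total luciferase alone and ignore viability, so some active siRNAs may act by altering cell number.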 Reagents against one gene are numbered here. Further read-outs or replicates are left out here.

total luciferase, z-score, by target gene and reagent
ZNF418: #1 1.31 inactive; #2 0.254 inactive; #3 -0.771 inactive; #4 -0.673 inactive; #5 0.157 inactive; #6 0.299 inactive
ZNF362: #1 -0.613 inactive; #2 -0.378 inactive; #3 0.246 inactive
LOC647264: #1 0.37 inactive; #2 -0.337 inactive; #3 0.533 inactive
CYBA: #1 0.615 inactive; #2 -2.34 inactive; #3 0.714 inactive
ZCWPW2: #1 6.58 active; #2 -0.216 inactive; #3 -0.633 inactive
ARHGAP18: #1 -1.87 inactive; #2 -0.432 inactive; #3 -0.422 inactive
WIZ: #1 0.328 inactive; #2 -1.68 inactive; #3 1.1 inactive

Sorted by “total luciferase, z-score” (descending): 3 of the entries above.
target gene	reagent no.	total luciferase, z-score	activity call
ZNF362	3	0.246	inactive
ZNF362	2	-0.378	inactive
ZNF362	1	-0.613	inactive
